# Data taken from article PMC11006906.
# Sequences of proteins named here, by UniProt entry; tags and fusion partners are left off. A change or cut given only in a name is not applied to a line headed by its entry.
# UniProt P61026: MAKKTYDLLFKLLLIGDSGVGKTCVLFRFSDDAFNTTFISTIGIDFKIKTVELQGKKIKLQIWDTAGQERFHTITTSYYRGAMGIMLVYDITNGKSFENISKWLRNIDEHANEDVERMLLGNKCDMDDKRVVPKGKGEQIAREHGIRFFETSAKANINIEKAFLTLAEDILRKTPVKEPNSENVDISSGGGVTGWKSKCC
# UniProt Q8NDI1: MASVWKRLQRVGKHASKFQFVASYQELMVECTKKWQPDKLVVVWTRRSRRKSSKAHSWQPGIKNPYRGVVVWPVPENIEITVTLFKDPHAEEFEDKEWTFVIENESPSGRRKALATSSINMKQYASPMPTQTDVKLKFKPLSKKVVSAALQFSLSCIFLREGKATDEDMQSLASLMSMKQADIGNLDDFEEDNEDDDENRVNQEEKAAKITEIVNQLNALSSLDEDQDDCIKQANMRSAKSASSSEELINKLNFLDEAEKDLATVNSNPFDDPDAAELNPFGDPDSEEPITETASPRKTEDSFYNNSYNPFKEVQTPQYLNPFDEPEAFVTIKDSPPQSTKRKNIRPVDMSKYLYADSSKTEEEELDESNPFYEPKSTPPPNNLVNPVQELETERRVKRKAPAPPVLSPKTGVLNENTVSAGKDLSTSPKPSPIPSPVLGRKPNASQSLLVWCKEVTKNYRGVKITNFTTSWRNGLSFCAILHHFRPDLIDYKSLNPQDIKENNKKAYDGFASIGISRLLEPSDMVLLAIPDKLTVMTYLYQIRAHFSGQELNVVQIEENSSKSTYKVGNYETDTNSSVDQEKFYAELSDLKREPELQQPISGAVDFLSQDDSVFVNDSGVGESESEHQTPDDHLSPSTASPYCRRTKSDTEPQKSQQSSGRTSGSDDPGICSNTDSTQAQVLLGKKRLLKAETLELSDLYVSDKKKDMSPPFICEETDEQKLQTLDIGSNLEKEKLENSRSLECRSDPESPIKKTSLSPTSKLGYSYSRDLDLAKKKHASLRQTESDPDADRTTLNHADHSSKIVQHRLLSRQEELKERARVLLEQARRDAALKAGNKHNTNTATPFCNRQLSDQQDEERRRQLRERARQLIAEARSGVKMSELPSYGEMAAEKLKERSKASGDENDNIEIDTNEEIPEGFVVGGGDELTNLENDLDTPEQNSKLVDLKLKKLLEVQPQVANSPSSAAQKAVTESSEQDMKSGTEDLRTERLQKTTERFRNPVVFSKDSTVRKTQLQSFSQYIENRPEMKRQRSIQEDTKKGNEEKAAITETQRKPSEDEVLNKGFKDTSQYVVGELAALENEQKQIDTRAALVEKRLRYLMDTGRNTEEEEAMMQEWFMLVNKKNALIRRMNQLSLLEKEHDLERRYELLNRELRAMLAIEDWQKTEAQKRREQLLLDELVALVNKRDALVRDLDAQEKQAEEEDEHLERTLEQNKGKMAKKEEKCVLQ
# No constants are given. Whether binding was seen depends on the method and setting. In cells and extracts the contact can be indirect. A yes stands for co-enrichment or nearness to the bait. Other partners may have been found. For some assays here: A no says only that the protein was not detected with the bait.
# Experiments:
# [1] = target: FlagBirA*-RAB10 Q68L (constitutively active) (UniProt P61026); assay: proximity labelling; BioID: FlagBirA*-RAB10 bait stably expressed in Flp-In T-REx 293 cells, tetracycline 1 ug/ml, biotin 50 uM for 20 h; streptavidin-sepharose purification and mass spectrometry; high confidence interactors BFDR <= 0.01 (SAINT) against FlagBirA* alone
# [2] = target: FlagBirA*-RAB10 T23N (dominant negative) (UniProt P61026); assay: as above
substance,measurement,setting,value
EHBP1 (from UniProt Q8NDI1 1-1231),binding,[1],binds
same,binding,[2],no binding
